# Where “and” joins values, the source holds several entries; their conditions need not be identical. Identical values can stand only once. Out of some 390,000 compounds screened, about 610 (0.16%) were called active. Inconclusive results, whose numbers are uncertain, are shown with a selection of clear calls. The call rests on the fitted dose curve; in most records, active means well fitted inhibition curve with a large enough effect; inconclusive means small, poorly fitted or top-dose-only effect, or effect the other way, or another doubt; inactive means no such curve, though single readings can be large or run the other way. A potency beside an inconclusive call is a rough fit, not a confirmed value.
# Experiment: Nrf2 qHTS screen for inhibitors: counterscreen for cytotoxicity
# Conditions: A549 ARE-Fluc cells, CellTiter-Fluor viability, 18-24 h; activity change, negative = cytotoxicity: at 46 µM (top of the series)
# How it was run: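 Cytotoxicity counterscreen: CellTiter-Fluor fluorescence was measured in A549 ARE_Fluc cells after 18-24 h of compound exposure in a concentration series. The subsequent BugLite luminescent read reports ARE-luciferase activity.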
# On the % scale 0 is the no-effect control and ±100 the full control effect; potency means the concentration at half of the fitted maximal effect.
SMILES,Potency,"activity change, negative = cytotoxicity"
S=C(NCc1ccco1)Nc1ccc(Cl)c(Cl)c1,"inconclusive: 29.1 µM [falling, single point]",
O=C(Nc1nc(-c2cccs2)cs1)c1ccc(S(=O)(=O)N2CCCC2)cc1,"inconclusive: 23.1 µM [falling, single point]",
CCN(C[C@H]1N[C@@](Cc2ccccc2)(C(=O)OC)[C@H]2C(=O)N(Cc3ccccc3)C(=O)[C@@H]12)C(=O)C1CCCCC1,"inconclusive: 20.6 µM [falling, single point]",
CS(=O)c1nc(-c2ccc(Br)cc2)cc(-c2ccccc2)c1C#N (centres undefined),"inconclusive: 29.1 µM [falling, single point]",
O=C(Nc1ccccc1F)C(=O)Nc1cccc2ccccc12,,inactive: 1.87%
O=C(c1ccc(S(=O)(=O)Nc2ccc(F)cc2)cc1)N1CCN(c2ccccn2)CC1,"inconclusive: 11.6 µM [falling, partial curve, poor fit]",
N#Cc1cc2cc3ccccc3nc2n2c(=O)c3ccccc3nc12,"inconclusive: 23.1 µM [falling, partial curve, poor fit]",
Cc1cccc(C2c3[nH]c4ccccc4c3CCN2C(=O)c2nn(C)c(=O)c3ccccc23)n1 (centres undefined),"inconclusive: 23.1 µM [falling, single point]",
CSc1ccc(C2c3[nH]c4ccccc4c3CCN2C(=O)c2ccnn2C)cc1 (centres undefined),"inconclusive: 29.1 µM [falling, partial curve, poor fit]",
Cc1ccc(NC(=O)CC2C(=O)OCC3CCCCN32)cc1Cl (centres undefined),"inconclusive: 20.6 µM [activator, partial curve, poor fit]",
Cc1ccc(NC(=O)c2ccc(NC(=O)N3CCSc4ncccc43)cc2)c(Cl)c1,,inactive: -4.94%
O=C1C(N2CCOCC2)=C(n2nnc3ccccc32)C(=O)c2ccccc21,active: 23.1 µM,
COc1ccc(C(=O)N[C@H](C(=O)Nc2ccc(S(=O)(=O)N3CCOCC3)cc2)C(C)C)cc1,"inconclusive: 14.6 µM [falling, partial curve, poor fit]",
CCN(CC)c1cc(C)c2cc(NC(=O)c3ccc(OC)c(OC)c3)ccc2n1,"inconclusive: 23.1 µM [falling, partial curve, poor fit]",
N#Cc1ccc(S(=O)(=O)N2CCN(Cc3cccs3)CC2)cc1,"inconclusive: 29.1 µM [activator, partial curve, poor fit]",
Cc1cc(NC(=O)c2cncc(Br)c2)ccc1NC(=O)c1cc2ccccc2o1,"inconclusive: 29.1 µM [falling, single point]",
O=C(CSc1nnc(-c2ccccn2)n1Cc1ccco1)c1ccc(-c2ccccc2)cc1,"inconclusive: 4.11 µM [falling, single point]",
CCOc1ccc(S(=O)(=O)NCC2CCCO2)c2cccnc12 (centres undefined),,inactive: -13.2%
CC12CCC(=O)C=C1CCC1C3CC(O)C(O)(C(=O)CO)C3(C)CC(O)C12F (centres undefined),,inactive: -1.14%
COc1ccc(C(=O)c2ccccc2)c(O)c1,,inactive: -4.16%
CCN1CCN(Cc2ccc(NC(=O)Nc3ccccc3Cl)cc2)CC1,,inactive: -2.46%
O=C(Nc1cccc(S(=O)(=O)N2CCOCC2)c1)c1ccc2c(=O)n3c(nc2c1)CCCCC3,"inconclusive: 14.6 µM [falling, partial curve]",

SMILES,Potency,"activity change, negative = cytotoxicity"
COC(=O)c1sccc1NC(=O)Cc1ccc(OC)cc1,"inconclusive: 25.9 µM [activator, partial curve, poor fit]",
CC(Oc1ccccc1)C(=O)NC1CCSc2ccccc21 (centres undefined),"inconclusive: 6.51 µM [activator, partial curve, poor fit]",
CCOc1ccc(S(=O)(=O)N2CCN(C(=O)COc3ccc(Br)cc3)CC2)cc1,"inconclusive: 18.4 µM [falling, single point]",
CCN(CC)CCn1c(=S)[nH]c2cc(C(=O)NCc3ccccc3Cl)ccc2c1=O,"inconclusive: 29.1 µM [falling, single point]",
Cc1sc2ncnc(N3CCN(CCOc4ccc(Cl)cc4)CC3)c2c1C,"inconclusive: 6.31 µM [falling, partial curve, poor fit]",
COc1ccc(CCN(C)c2ccc(S(=O)(=O)N3CCCC3)cc2[N+](=O)[O-])cc1OC,,inactive: -19.9%
CCCCc1ccc(S(=O)(=O)NC2CCS(=O)(=O)C2)cc1 (centres undefined),,inactive: -2.42%
CC(=O)OCC(=O)[C@@]1(O)[C@H](C)C[C@H]2[C@@H]3CCC4=CC(=O)C=C[C@]4(C)[C@@]3(F)[C@@H](O)C[C@@]21C,,inactive: -10.8%
CCc1ccc2oc(-c3cc(N=Cc4cccc(OC)c4O)ccc3O)nc2c1,,inactive: -10.7%
COc1ccc(Cn2c(C(=O)O)c(CNCc3ccc(OC)cc3OC)c3ccc(C)cc32)cc1,active: 13 µM,
Fc1ccc2cc(-c3ccsc3)ncc2c1,,inactive: 1.24%
COc1cccc(/C=N/NC(=S)Nc2cccc(C(=O)O)c2)c1O,,inactive: 7.22%
CC(C)=CCC/C(C)=C/CNC(=O)C[C@H]1C[C@H](C(=O)N2CCOCC2)[C@@]2(C)c3[nH]c4cc(-c5ccco5)ccc4c3CCN2C1=O,"inconclusive: 29.1 µM [falling, single point]",
Cc1cc(Nc2cccc(C(F)(F)F)c2)nc2ccc(NC(=O)Cc3ccc(Cl)cc3)cc12,"inconclusive: 18.4 µM [falling, single point]",
CC(C)COc1ccc(/C(=N/O)c2ccccc2)cc1,"inconclusive: 20.6 µM [falling, single point]",
COc1cccc(C(=O)Nc2cc(NC(=O)c3cccs3)ccc2C)c1OC,"inconclusive: 18.4 µM [falling, single point]",
CC(C)c1ccc2[nH]c(O)c(N=NC(=O)c3cccc(S(=O)(=O)N4CCCCC4)c3)c2c1,"inconclusive: 16.4 µM [falling, partial curve]",
Cc1cc(=O)oc2cc(OCC(=O)N/N=C/c3cc([N+](=O)[O-])ccc3O)ccc12,"inconclusive: 5.17 µM [activator, partial curve, poor fit]",
O=C1CC(SC(=Nc2ccccc2)Nc2ccccc2)C(=O)N1c1cccc(Cl)c1 (centres undefined),"inconclusive: 25.9 µM [falling, single point]",
CC(C)(C)NC(=O)[C@@H]1C[C@@H]2CCCC[C@@H]2CN1C[C@@H](O)[C@H](Cc1ccccc1)NC(=O)[C@H](CC(N)=O)NC(=O)c1ccc2ccccc2n1,"inconclusive: 18.4 µM [falling, single point] and inconclusive: 23.1 µM [falling, single point]",
NC(=O)COC(=O)[C@H](Cc1ccccc1)NS(=O)(=O)c1ccc2c(c1)OCCO2,,inactive: 2.89%
Cc1cc(C)c2nc(N(CCCN(C)C)C(=O)C3=COCCO3)sc2c1,"inconclusive: 32.6 µM [activator, partial curve, poor fit]",

SMILES,Potency,"activity change, negative = cytotoxicity"
O=C(CSc1nc2c(sc3ccccc32)c(=O)n1CCCN1CCCC1)NCc1ccco1,"inconclusive: 29.1 µM [falling, single point]",
CCOC(=O)/C(C#N)=C\C1=C(N2CCCC2)CC(C)(CC)OC1 (centres undefined),"inconclusive: 29.1 µM [falling, single point]",
COc1ccc(N2CCN(S(=O)(=O)c3ccc(C4CCCCC4)cc3)CC2)cc1,,inactive: 1.64%
COc1ccc(NS(=O)(=O)c2cccc(C(=O)NCc3ccccc3CN3CCOCC3)c2)cc1,"inconclusive: 18.4 µM [falling, single point]",
Nc1ccc(O)cc1,,inactive: -18.9%
CCOC(=O)c1ccccc1NC(=O)c1cn(CC(C)C)c(=O)c2cc(OC)c(OC)cc12,,inactive: -12.1%
CCNc1sc(S(C)(=O)=O)nc1S(=O)(=O)c1ccc(Cl)cc1,"inconclusive: 0.206 µM [activator, full curve, poor fit]",
CN1CCN(C(CNC(=O)C(=O)Nc2ccc(Cl)cc2)c2cccnc2)CC1 (centres undefined),"inconclusive: 18.4 µM [falling, partial curve, poor fit]",
CC(C)Cn1nc(NC(=O)c2cccc(Cl)c2)c2cc3ccccc3nc21,,inactive: 3.58%
Cc1ccc(C(=O)Nc2ccc(N3CCCC3)cc2)cc1,,inactive: 1.53%
Cc1ccc(C)c(OCc2cc(C(=O)NC3CCN(Cc4ccccc4)CC3)no2)c1,"inconclusive: 29.1 µM [falling, single point]",
Cc1ccc2c(C(=O)CN3CCN(c4ccccc4)CC3)c(C)[nH]c2c1,,inactive: -3.65%
O=C1OC(c2ccccc2)=NC12CC2c1ccc(Cl)cc1 (centres undefined),"inconclusive: 32.6 µM [falling, single point]",
COc1ccccc1Nc1nc(NCC2CCCO2)c2ccccc2n1 (centres undefined),"inconclusive: 20.6 µM [falling, partial curve, poor fit]",
CCCn1c2ccccc2c2cnn(CC(=O)NCC3CCN(Cc4ccc(C)cc4)CC3)c(=O)c21,"inconclusive: 20.6 µM [falling, partial curve, poor fit]",
CC(C)C[C@H](NC(=O)c1[nH]cnc1C(=O)Nc1ccccc1)C(=O)OC(C)(C)C,"inconclusive: 20.6 µM [falling, partial curve, poor fit]",
COc1cc(C2C(C(=O)/C=C/c3ccccc3)=C(O)C(=O)N2c2ccccn2)ccc1O (centres undefined),"inconclusive: 18.4 µM [falling, partial curve]",
CCN1CCN(c2ccc(S(=O)(=O)N3CCCCC3)cc2NC(=O)COc2ccc(Cl)cc2)CC1,"inconclusive: 14.6 µM [falling, partial curve]",
Cc1nn(-c2ccccc2)c2sc(C(=O)NNC(=O)COc3cccc4ccccc34)cc12,"inconclusive: 29.1 µM [falling, single point]",
Cc1cc(C)c2ccc3c(C)c(C)nc3c2[nH]1,"inconclusive: 9.2 µM [falling, partial curve]",

# Source: PubChem BioAssay AID504648 (National Center for Advancing Translational Sciences (NCATS), 2011)
